Assay results from publication PMC11211442.
Results are given in words; binding and its absence hold for the method and conditions named. Some binding calls cover weakened binding; strength is not graded here.

By UniProt entry, the sequences of proteins in these tests, tags left out.
UniProt K4LM89: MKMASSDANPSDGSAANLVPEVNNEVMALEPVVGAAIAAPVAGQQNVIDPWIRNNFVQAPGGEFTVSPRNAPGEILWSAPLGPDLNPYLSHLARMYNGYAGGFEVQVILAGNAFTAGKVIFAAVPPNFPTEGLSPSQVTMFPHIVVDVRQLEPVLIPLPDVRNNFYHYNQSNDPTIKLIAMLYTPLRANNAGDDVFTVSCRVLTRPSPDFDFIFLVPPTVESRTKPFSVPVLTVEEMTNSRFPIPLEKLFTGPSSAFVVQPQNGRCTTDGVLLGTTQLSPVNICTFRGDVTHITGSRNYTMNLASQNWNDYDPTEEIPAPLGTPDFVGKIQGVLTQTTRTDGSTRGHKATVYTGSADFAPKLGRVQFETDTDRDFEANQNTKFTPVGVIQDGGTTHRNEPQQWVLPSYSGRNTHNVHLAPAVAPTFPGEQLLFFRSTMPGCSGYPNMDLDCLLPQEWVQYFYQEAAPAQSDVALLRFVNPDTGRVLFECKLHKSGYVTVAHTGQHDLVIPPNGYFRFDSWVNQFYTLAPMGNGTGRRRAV

Target: norovirus capsid protein VP1 from strain Hu/GII.4/Sydney/NSW0514/2012/AU (wild type noro-VLP) (norovirus Hu/GII.4/Sydney/NSW0514/2012/AU) (UniProt K4LM89)
Assay: dynamic light scattering + transmission electron microscopy; noro-VLP assembled in High Five cells, pelleted by ultracentrifugation (175,000 g), purified by SEC (Sephacryl S-500 HR) in PBS, more than 95% pure; particles analysed by DLS and TEM; both purified

For “norovirus capsid protein VP1 from strain Hu/GII.4/Sydney/NSW0514/2012/AU (wild type noro-VLP) (from UniProt K4LM89 1-540)”, the binding was “binds”.
